Results deposited as PubChem BioAssay AID1053208 (Peter MacCallum Cancer Centre, 2014)
The deposit covers about 17,000 reagents; below is a part drawn at random. 788 of them (4.7%) count as active. 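Calls rest on z-score classes alone; an extra cut-off of viability at most 70% of control was not applied to them.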 Unmarked entries are inactive. Reagents against one gene are numbered here. Not all columns of the deposit are shown.

Test: 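Synthetic lethal interactions between gene loss and doxorubicin in osteosarcoma cells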 (primary screen)
Cells: mouse osteosarcoma cells, early-passage culture from an engineered mouse model of fibroblastic bone tumour
Reagents: siRNA pool against mouse genes, 40 nM
Timing: about 120 h (48 h before drug, then 72 h with drug)
Challenge: doxorubicin 100 nM for 72 h, roughly 30-40% inhibitory dose
Measured: 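Viability read as ATP luminescence after 72 h of 100 nM doxorubicin or none, duplicate wells averaged, scaled to non-targeting siRNA, then expressed as robust z-scores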
Direction: viability z-score with doxorubicin: higher = more viable cells under doxorubicin; viability z-score without drug: higher = more viable cells with knock-down alone
Hit rule: 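Called active if knock-down leaves viability unchanged without drug (z within -2 to 2) but lowers it with doxorubicin (z at or under -2)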

| target gene | pool no. | combined z-score class | viability z-score with doxorubicin | viability z-score without drug |
| --- | --- | --- | --- | --- |
| Prune1 | 1 | no change with or without drug | 0.67 | -0.51 |
| Tomm6 | 1 | no change with or without drug | 0.22 | 0.34 |
| Ms4a4b | 1 | high cell count with doxorubicin only | 2.47 | 1.85 |
| Ybx2 | 1 | low cell count with doxorubicin only (active) | -2.25 | -1.18 |
| Or5p52 | 1 | no change with or without drug | -1.8 | -0.17 |
| Mterf1a | 1 | high cell count with doxorubicin only | 2.25 | -0.34 |
| Gys1 | 1 | no change with or without drug | 1.35 | 0.84 |
| Gys1 | 2 | no change with or without drug | 0.9 | -0.51 |
| Mapk8 | 1 | no change with or without drug | 0.9 | 0.51 |
| Or51e2 | 1 | no change with or without drug | -0.56 | -0.51 |
| Spag7 | 1 | no change with or without drug | 0 | 0.51 |
| Cntd1 | 1 | no change with or without drug | 1.46 | 0.51 |
| Kat14 | 1 | no change with or without drug | 0.9 | 1.18 |
| Cdca7l | 1 | no change with or without drug | -0.9 | -0.84 |
| Csnk1e | 1 | no change with or without drug | 0 | 0.84 |
| Hacd2 | 1 | no change with or without drug | 1.01 | 0.17 |
| Zfp280b | 1 | no change with or without drug | 0.9 | -0.84 |
| Dbt | 1 | no change with or without drug | 0.45 | 1.52 |
| Tmem145 | 1 | no change with or without drug | 0 | 0 |
| Mthfd1 | 1 | no change with or without drug | 0.56 | -1.18 |
| Hdac7 | 1 | no change with or without drug | -1.91 | 1.85 |
| Rpl7 | 1 | low cell count with and without drug | -6.74 | -7.42 |
| Cul2 | 1 | no change with or without drug | -1.35 | -1.52 |
| Klrg1 | 1 | no change with or without drug | 0 | -0.17 |
| Pip5kl1 | 1 | no change with or without drug | -0.22 | 1.18 |
| Vmn1r225 | 1 | no change with or without drug | -0.34 | -0.84 |
| Rps6ka5 | 1 | no change with or without drug | -0.11 | -0.34 |
| Neu2 | 1 | no change with or without drug | 0 | -0.17 |
| Kdm5a | 1 | no change with or without drug | -1.46 | -0.51 |
| Aldh1a2 | 1 | no change with or without drug | -1.01 | 0.34 |
| Dlg1 | 1 | no change with or without drug | 1.57 | 0 |
| Mrps27 | 1 | no change with or without drug | -1.57 | -1.35 |
| Hps1 | 1 | no change with or without drug | -0.34 | -1.18 |
| Dcaf7 | 1 | no change with or without drug | -0.22 | -0.17 |
| Rlf | 1 | no change with or without drug | 0.34 | 0 |
| Adam2 | 1 | no change with or without drug | -0.11 | 0.17 |
| Pcdhga7 | 1 | low cell count with doxorubicin only (active) | -2.7 | 0.34 |
| Rrp9 | 1 | low cell count with doxorubicin only (active) | -2.25 | -1.18 |
| Tcf25 | 1 | no change with or without drug | -0.22 | -0.51 |
| B4galt7 | 1 | high cell count with doxorubicin only | 2.7 | 1.52 |
| Defa3 | 1 | no change with or without drug | -0.11 | 1.52 |
| Or6k2 | 1 | no change with or without drug | -1.35 | -1.18 |
| Zbed3 | 1 | no change with or without drug | 1.57 | 1.18 |
| Gpt2 | 1 | no change with or without drug | 1.69 | 0.17 |
| Gpr141 | 1 | no change with or without drug | 0.45 | 0.17 |
| Erlin2 | 1 | no change with or without drug | -1.12 | -0.17 |
| Pithd1 | 1 | no change with or without drug | 0.9 | -1.35 |
| Kcnc3 | 1 | no change with or without drug | 0.34 | 0.51 |
| Vsx2 | 1 | no change with or without drug | 0 | 1.52 |
| Dtwd1 | 1 | no change with or without drug | -0.56 | 0 |

Active calls, of those listed so far:
| target gene | pool no. | combined z-score class | viability z-score with doxorubicin | viability z-score without drug |
| --- | --- | --- | --- | --- |
| Ybx2 | 1 | low cell count with doxorubicin only (active) | -2.25 | -1.18 |
| Pcdhga7 | 1 | low cell count with doxorubicin only (active) | -2.7 | 0.34 |
| Rrp9 | 1 | low cell count with doxorubicin only (active) | -2.25 | -1.18 |
